Assay results as given in article PMC11084668.

Chains of the proteins cited; added tags and fusions are not shown.
UniProt Q15717, whole entry: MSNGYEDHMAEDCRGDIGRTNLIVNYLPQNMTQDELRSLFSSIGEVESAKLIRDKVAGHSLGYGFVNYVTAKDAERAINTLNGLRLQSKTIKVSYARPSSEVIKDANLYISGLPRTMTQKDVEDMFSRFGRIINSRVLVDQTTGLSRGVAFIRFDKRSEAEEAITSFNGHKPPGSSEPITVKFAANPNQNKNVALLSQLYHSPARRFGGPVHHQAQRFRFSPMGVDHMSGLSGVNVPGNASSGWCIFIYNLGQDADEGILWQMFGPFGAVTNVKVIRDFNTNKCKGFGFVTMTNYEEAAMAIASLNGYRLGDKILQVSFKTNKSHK

Molecular target: HuR-cMycHis (UniProt Q15717)
Assay: AlphaScreen
Details: 1-3 nM HuR, 50 nM RNA, binding not affected by EGCG or TFMG; REMSA: 20 mM HEPES pH 7.5, 50 mM KCl, 0.5 ug BSA, 0.25% glycerol, room temperature, 1 h; AlphaScreen: dialysis buffer; recombinant protein; protein details: cMyc-His; label: 5'-biotin

AUUAUUUAUUAUUUAUUUAUUAUUUA [BiTNF (TNFalpha AU-rich element)]
binding result: binds

For at least one entry, the source does not settle the construct or the ends of the probe. At least one verdict was read from the data and is not stated in words by the source.
